No constants are given. Whether binding was seen depends on the method and setting. Some results given as binding are weak or reduced against the parent protein; the word gives no strength. Where a sequence is shown, tags or fusion partners need not be part of it.
Key:
[1] = target: T1, Full-length human MIF (macrophage migration inhibitory factor), Gal4 DNA-BD fusion in pGBKT7 (human) (UniProt P14174); assay: two-hybrid; Matchmaker Gold Y2H screen: pre-transformed human fetal brain cDNA library in Y187 mated with Y2HGold expressing MIF as bait
T1 sequence: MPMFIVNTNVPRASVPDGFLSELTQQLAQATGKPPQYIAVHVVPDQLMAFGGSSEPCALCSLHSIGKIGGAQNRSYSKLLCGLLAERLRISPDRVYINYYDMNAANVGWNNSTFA

By UniProt entry, the sequences of proteins in these tests, tags left out. Residues count along the entry.
UniProt Q92743, residues 288-480: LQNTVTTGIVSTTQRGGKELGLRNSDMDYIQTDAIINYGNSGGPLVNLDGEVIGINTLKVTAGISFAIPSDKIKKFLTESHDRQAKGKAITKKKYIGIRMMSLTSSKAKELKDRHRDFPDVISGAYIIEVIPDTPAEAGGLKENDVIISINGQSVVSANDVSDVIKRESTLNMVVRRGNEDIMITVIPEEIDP
Truncated HTRA1 construct containing the PDZ domain (Q92743, residues 365-467): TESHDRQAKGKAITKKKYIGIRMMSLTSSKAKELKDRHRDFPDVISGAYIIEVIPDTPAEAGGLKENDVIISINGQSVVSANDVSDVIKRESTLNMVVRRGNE

[2] = target: T1, Full-length human MIF (macrophage migration inhibitory factor), Gal4 DNA-BD fusion in pGBKT7 (human); assay: two-hybrid; co-transformation / direct mating: coding regions in pGADT7 in Y2HGold expressing pGBKT7-MIF constructs, selective agar plates (DDO, DDO/X/A, QDO), 3-5 days at 30 °C
[3] = target: T2, C-terminally truncated MIF, the first 38 amino acids (with the first alpha-helix), Gal4 DNA-BD fusion (human) (UniProt P14174); assay: as above
T2 sequence: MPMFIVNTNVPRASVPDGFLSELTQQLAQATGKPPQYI

Row | binding [1] | binding [2] | binding [3] | Substance
1 | binds | binds | binds | HTRA1 cDNA clone from the human fetal brain library: C-terminal 193 amino acids (part of the protease domain and the whole PDZ domain) (from UniProt Q92743 288-480) (domain or fragment)
2 | – | no binding | – | Truncated HTRA1 construct containing the PDZ domain (from UniProt Q92743 365-467) (domain or fragment)
